Values quoted from earlier work as cited in patent US12491200B2, “Compositions and methods using cannabinoids for treating stammering/stuttering and symptoms of Tourette syndrome” (priority 2019, dated 2025).
For at least one compound, name, drawing or mass did not settle the structure.

Legend:
[1] = system: tic disorders; conditions: compared with placebo
[2] = system: developmental stuttering

**Q.** Which results are given for `Cc1cc2c(s1)Nc1ccccc1N=C2N1CCN(C)CC1` [olanzapine]?
**A.** tic symptom score [1]: significantly improve tic symptom score; speech fluency [2]: improve speech fluency
